Results deposited as PubChem BioAssay AID504791 (Drosophila RNAi Screening Center, 2011).

- Purpose: 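Genes of the fly required for silencing by miRNA, siRNA or endo-siRNA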 (primary screen)
- Cells: Drosophila S2-derived reporter cells
- Reagents: long dsRNA against Drosophila genes, about 150-250 ng dsRNA per well (siRNA assay); about 80-120 ng (miRNA assay)
- Time to read-out: about 5 days (siRNA assay); about 4 days (miRNA assay)
- Treatment: copper sulfate induction of reporters: 25 µM (siRNA assay); 200 mM stated (miRNA assay), 1-2 days before reading
- Read-out: 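Per-well ratio of Renilla over firefly light, expressed relative to that plate's average ratio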
- Rule for the call: 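First-pass picks had plate-scaled ratios over 1.5 for the siRNA assay, over 1.6 for the miRNA assay, or under 0.6; two distinct dsRNAs had to score alike on retest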
The screen tested about 23,000 reagents; shown is an unselected part of those that have a named target and a result. Of all reagents, 199 (0.86%) got an active call. 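Plate-scaled ratios behind the calls are not deposited; printed light signals are raw; many rows marked increased or decreased are still called inactive.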 Entries without a mark were called inactive. A plus sign joins genes that one reagent is predicted to hit. The record does not give: the direction of the score.

gene | DRSC id | stable siRNA reporter change | stable assay Renilla, run 1 (luminescence) | stable assay firefly, run 1 (luminescence)
CG33155 + mRpL53 | DRSC05461 | – | 5438 | 4.47e5
enok (enoki mushroom) | DRSC04096 | – | 13799 | 1.69e6
Rnmt (RNA guanine-7 methyltransferase) | DRSC03558 | – | 9283 | 4.47e5
prom (prominin) | DRSC04684 | – | 6803 | 3.71e5
prom (prominin) | DRSC21463 | – | 8959 | 5.89e5
prom (prominin) | DRSC22088 | – | 8116 | 5.28e5
CG2816 | DRSC00539 | – | 8054 | 5.08e5
CG6310 | DRSC10619 | – | 5928 | 3.36e5
RASSF8 (Ras association domain family member 8) | DRSC15707 | – | 7406 | 4.30e5
Brd (Bearded) | DRSC09685 | – | 6942 | 2.81e5
CG16896 | DRSC04284 | – | 14181 | 2.13e6
CG11699 | DRSC19419 | – | 5163 | 5.55e5
CG10055 | DRSC12503 | – | 6750 | 3.67e5
bel (belle) | DRSC16555 | reporter ratio raised past the hit cutoff (active) | 7688 | 2.86e5
Ldsdh1 (Lipid droplet subset dehydrogenase 1) | DRSC18219 | – | 5378 | 3.38e5
Ziz (Zizimin) | DRSC02506 | – | 6614 | 3.77e5
Ziz (Zizimin) | DRSC02976 | – | 9901 | 5.91e5
Grd (Glycine receptor) | DRSC11178 | – | 7694 | 3.24e5
CG17110 | DRSC15173 | – | 6523 | 3.11e5
Chi (Chip) | DRSC04602 | – | 7354 | 1.57e6
ND-20L (NADH dehydrogenase (ubiquinone) 20 kDa subunit-like) | DRSC15414 | – | 5307 | 4.12e5
CG13587 | DRSC04223 | – | 6858 | 3.75e5
CG12301 | DRSC09875 | – | 6919 | 3.80e5
Cyp4e2 (Cytochrome P450 4e2) | DRSC07371 | – | 7749 | 4.20e5
Atg8a (Autophagy-related 8a) | DRSC18024 | – | 6047 | 3.93e5
Erk7 (Extracellularly regulated kinase 7) | DRSC18127 | – | 4711 | 3.49e5
Erk7 (Extracellularly regulated kinase 7) | DRSC18227 | – | 5504 | 3.50e5
Erk7 (Extracellularly regulated kinase 7) | DRSC21895 | – | 10328 | 5.78e5
Octbeta3R (Octopamine beta3 receptor) | DRSC15351 | – | 6379 | 3.43e5
Octbeta3R (Octopamine beta3 receptor) | DRSC16191 | – | 6468 | 3.77e5
Octbeta3R (Octopamine beta3 receptor) | DRSC21853 | – | 8351 | 6.12e5
Octbeta3R (Octopamine beta3 receptor) | DRSC21902 | – | 8532 | 4.96e5
Octbeta3R (Octopamine beta3 receptor) | DRSC22350 | – | 9742 | 7.12e5
D2hgdh (D-2-hydroxyglutaric acid dehydrogenase) | DRSC18577 | – | 8579 | 4.40e5

Just “stable assay firefly, run 1 (luminescence)” (5 entries from above):
CG13587 [DRSC04223] = 3.75e5
CG12301 [DRSC09875] = 3.80e5
Cyp4e2 (Cytochrome P450 4e2) [DRSC07371] = 4.20e5
Atg8a (Autophagy-related 8a) [DRSC18024] = 3.93e5
Erk7 (Extracellularly regulated kinase 7) [DRSC18127] = 3.49e5
